# Source: PubChem BioAssay AID743255 (National Center for Advancing Translational Sciences (NCATS), 2014)
# The chains behind the UniProt entries cited, without tags or fusion partners. Where a name states a change or a piece, a line headed by the entry shows the natural chain unless it says otherwise.
# UniProt O94782: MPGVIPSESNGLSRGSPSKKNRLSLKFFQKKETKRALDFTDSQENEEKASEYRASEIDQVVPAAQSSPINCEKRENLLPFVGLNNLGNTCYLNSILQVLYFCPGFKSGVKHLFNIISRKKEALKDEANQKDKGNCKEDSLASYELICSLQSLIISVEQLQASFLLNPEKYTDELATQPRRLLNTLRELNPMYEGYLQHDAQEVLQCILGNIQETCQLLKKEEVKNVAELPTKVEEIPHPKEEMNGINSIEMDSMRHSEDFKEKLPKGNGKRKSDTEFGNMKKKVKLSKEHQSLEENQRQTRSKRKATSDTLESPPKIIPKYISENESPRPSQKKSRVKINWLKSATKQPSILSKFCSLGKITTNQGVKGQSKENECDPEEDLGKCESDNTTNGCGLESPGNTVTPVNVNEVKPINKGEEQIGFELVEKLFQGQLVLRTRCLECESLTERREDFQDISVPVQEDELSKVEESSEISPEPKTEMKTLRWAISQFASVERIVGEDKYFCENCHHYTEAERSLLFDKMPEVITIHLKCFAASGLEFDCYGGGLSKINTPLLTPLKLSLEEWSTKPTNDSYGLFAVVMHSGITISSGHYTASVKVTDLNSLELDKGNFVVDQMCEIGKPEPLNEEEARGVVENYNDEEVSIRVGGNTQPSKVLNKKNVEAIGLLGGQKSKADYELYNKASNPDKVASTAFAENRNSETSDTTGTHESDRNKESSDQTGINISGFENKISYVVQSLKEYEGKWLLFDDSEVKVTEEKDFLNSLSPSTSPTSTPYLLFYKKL
# Screen size: about 390,000 compounds; about 910 (0.23%) were called active. The shares of active, inactive and inconclusive entries below differ from those in the screen. Calls follow the shape of the dose curve; as a rule, active = well fitted inhibition curve with a large enough effect; inconclusive = small, poorly fitted or top-dose-only effect; inactive = no such curve, though single readings can be large or run the other way. A potency beside an inconclusive call is a rough fit, not a confirmed value.
# Molecular target: Ubiquitin carboxyl-terminal hydrolase 1 (Homo sapiens) (UniProt O94782)
# Assay: Inhibitors of USP1/UAF1: Primary Screen; also: nearly all actives have a fitted effect of over 60% in size
# Details: recombinant USP1/UAF1, Ub-Rhodamine cleavage fluorescence; activity change, negative = inhibition: at 57.1 µM (top of the series)
# Method in brief: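 USP1/UAF1 complex at 1 nM was preincubated with compound for 15 min at room temperature, then Ub-Rho substrate (150nM final) was added. Fluorescence (480/540 nm) was read kinetically, 6 reads every 60 seconds.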
# % is scaled to controls: 0 for no effect and ±100 for the full control effect; potency is read from the fitted curve at half-maximal effect.
SMILES,Potency,"activity change, negative = inhibition"
CCC(c1ccccc1)C(CC)c1cc(O)c(O)c(O)c1 (stereo not given),inactive,–
N/C(Cn1cncn1)=N\OC(=O)c1ccc(Cl)cc1,"inconclusive: 7.94 µM [inhibitor, partial curve, poor fit]",–
CCOC(=O)c1c(C)[nH]c2c1-c1ccccc1C(=O)C2=O,active: 1.26 µM,–
CN(C)C1=NC[C@H](Cc2ccccc2)N1CCc1cccc(F)c1,"inconclusive: 35.5 µM [inhibitor, partial curve]",–
O=C(/C=C/c1ccccc1)Nc1cccc(C(=O)N2CCCC2)c1,"inconclusive: 50.1 µM [inhibitor, partial curve, poor fit]",–
COc1cccc(NC(=O)c2cc(CN3C(=O)c4ccccc4C3=O)ccc2OC)c1,"inconclusive: 17.8 µM [inhibitor, partial curve]",–
Cc1ccccc1NC(=O)CSc1c(C(C)C)cnc2c1c(=O)n(C)c(=O)n2C,–,inconclusive: -17.5% [inhibitor]
O=C(NCCO)C(O)C(O)C(=O)NCCO (stereo not given),"inconclusive: 50.1 µM [inhibitor, partial curve, poor fit]",–
COc1cc(Cl)c(C)cc1NC(=O)CC1Oc2ccccc2NC1=O (stereo not given),"inconclusive: 44.7 µM [inhibitor, single point]",–
COc1cccc(-c2ncc3ccccc3c2COC(=O)c2ccc(Br)cc2)c1,"inconclusive: 10 µM [inhibitor, partial curve]",–
O=C(COC(=O)Cc1ccc(S(=O)(=O)N2CCOCC2)s1)NCCc1ccccc1,"inconclusive: 0.501 µM [inhibitor, full curve, poor fit]",–
CCc1ccc2oc(-c3cc(N=Cc4cccc(OC)c4O)ccc3O)nc2c1,inactive,–
Cc1ccc(NC(=O)c2ccc(NCCN)c([N+](=O)[O-])c2)cc1,inactive,–
CC(C)=CCC/C(C)=C/CNC(=O)C[C@H]1C[C@H](C(=O)N2CCOCC2)[C@@]2(C)c3[nH]c4cc(-c5ccco5)ccc4c3CCN2C1=O,"inconclusive: 56.2 µM [inhibitor, partial curve, poor fit]",–
CCC(C(=O)O)N1C(=O)/C(=C/c2cccn2C)SC1=S (stereo not given),"inconclusive: 25.1 µM [inhibitor, single point]",–
CCn1c(=O)c2cc(C(=O)Nc3cccc(C(F)(F)F)c3)sc2c2ccccc21,"inconclusive: 3.55 µM [inhibitor, full curve, poor fit]",–
CN(C)C(=O)CCc1ccc2c3c([nH]c2c1)[C@]1(C)[C@@H](C(=O)N2CCOCC2)C[C@H](CC(=O)NCCCn2ccnc2)C(=O)N1CC3,"inconclusive: 50.1 µM [inhibitor, partial curve, poor fit]",–
O=C(O)CSc1cccc2cccc(C(=O)O)c12,"inconclusive: 35.5 µM [inhibitor, partial curve]",–
COc1ccc(NC(=O)CC2Oc3ccc(C)cc3NC2=O)cc1Cl (stereo not given),"inconclusive: 39.8 µM [inhibitor, single point]",–
Cc1cccc(CSCCNC(=O)C2CCN(S(=O)(=O)Cc3ccccc3)CC2)c1,"inconclusive: 0.355 µM [inhibitor, full curve, poor fit]",–

SMILES,Potency,"activity change, negative = inhibition"
COc1cccc(F)c1C(=O)NC(=O)Nc1ccc2nc(C)oc2c1,"inconclusive: 44.7 µM [inhibitor, partial curve]",–
CC(C)(C)OC(=O)N1O[C@H]2CC1[C@@H]1[C@@H]2N=NN1CCc1ccncc1,inactive,–
O=C(NN=C1CCCCCC1)c1cc(-c2ccccc2)nc2ccccc12,inactive,–
COc1ccc(C(=O)NC2CC2)cc1OC1CCN(Cc2ccc(F)cc2)CC1,inactive,–
Cc1c(Cl)cccc1NC(=O)c1oc2ccc(S(=O)(=O)N3CCCCCC3)cc2c1C,"inconclusive: 3.16 µM [inhibitor, partial curve]",–
O=C(NC(=O)c1ccc(F)cc1F)Nc1ccc(Cl)cc1,"inconclusive: 50.1 µM [inhibitor, partial curve, poor fit]",–
CCOC(=O)c1c(NC(C)=O)c2c3c(sc2n1Cc1c(C)cc(C)cc1C)CCCC3,inactive,–
O=C(Nc1ccc(C(=O)O)cc1)/C(=C\C=C\c1ccccc1)NC(=O)c1ccc(Br)cc1,–,active: -39.9%
CCOC(=O)[C@@H]1[C@H]2COc3cc(OC)ccc3[C@H]2N2C(=O)N(c3ccc(Br)cc3)C(=O)[C@]12C,"inconclusive: 56.2 µM [inhibitor, partial curve, poor fit]",–
CC(C)Cn1nc(NC(=O)c2cccc(Cl)c2)c2cc3ccccc3nc21,inactive,–
COc1ccc(-c2ccc(C3C(C#N)=C(N)Oc4n[nH]c(C)c43)o2)cc1 (stereo not given),"inconclusive: 31.6 µM [inhibitor, partial curve, poor fit]",–
O=C(/C=C/c1ccc(S(=O)(=O)N2CCOCC2)cc1)NCc1ccc(Cl)cc1,inactive,–
c1csc(-c2cn3ccc4ccccc4c3n2)c1,"inconclusive: 70.8 µM [inhibitor, partial curve, poor fit]",–
Cc1ccc(C)c(N2CCN(C(=O)CCc3nnc4n(C)c(=O)c5ccccc5n34)CC2)c1,"inconclusive: 0.398 µM [inhibitor, full curve, poor fit]",–
CN(CC(=O)NC1CCCCC1)S(=O)(=O)c1cccc2cccnc12,"inconclusive: 1.41 µM [inhibitor, full curve, poor fit]",–
NC(=O)c1nc(Nc2ccccc2)sc1NC(=O)c1c(F)cccc1F,"inconclusive: 7.08 µM [inhibitor, full curve, poor fit]",–
CCCn1c2ccccc2c2cnn(CC(=O)NCC3CCN(Cc4ccc(C)cc4)CC3)c(=O)c21,"inconclusive: 5.01 µM [inhibitor, partial curve]",–
COc1ccccc1Nc1nc(NCC2CCCO2)c2ccccc2n1 (stereo not given),"inconclusive: 39.8 µM [inhibitor, partial curve, poor fit]",–
CC(C)C[C@H](NC(=O)c1[nH]cnc1C(=O)Nc1ccccc1)C(=O)OC(C)(C)C,"inconclusive: 44.7 µM [inhibitor, partial curve, poor fit]",–
CCOc1ccc(CNC(=O)c2ccc3c(c2)c(C)c(C)n3C)cc1,"inconclusive: 31.6 µM [inhibitor, partial curve]",–

# For reference, some entries already given.
SMILES,Potency,"activity change, negative = inhibition"
c1csc(-c2cn3ccc4ccccc4c3n2)c1,"inconclusive: 70.8 µM [inhibitor, partial curve, poor fit]",–
Cc1ccc(C)c(N2CCN(C(=O)CCc3nnc4n(C)c(=O)c5ccccc5n34)CC2)c1,"inconclusive: 0.398 µM [inhibitor, full curve, poor fit]",–
